Experimental data as given in patent publication US11452714B2, “Antibacterial agents including histidine kinase inhibitors” (Regents of the University of Minnesota, priority 2017, dated 2022).

Biological target: T1, HK853 (Thermotoga maritima, UniProt Q9WZV7)
T1 sequence (Q9WZV7 232-489): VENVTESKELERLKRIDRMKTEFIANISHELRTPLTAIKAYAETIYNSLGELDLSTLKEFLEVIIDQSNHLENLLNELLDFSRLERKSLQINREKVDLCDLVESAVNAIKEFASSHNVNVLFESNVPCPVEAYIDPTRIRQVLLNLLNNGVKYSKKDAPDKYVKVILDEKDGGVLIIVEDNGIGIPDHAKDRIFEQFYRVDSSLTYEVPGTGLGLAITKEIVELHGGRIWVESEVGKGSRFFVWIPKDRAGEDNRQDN
Details: in words

| Compound | inhibition of HKs |
| --- | --- |
| Nc1nc2ccc(C(F)(F)F)cc2s1 [Rilu-6] | found to inhibit HKs |
| Cc1nc2ccc(N)cc2s1 [Rilu-7] | found to inhibit HKs |
| COc1ccc2nc(N)sc2c1 [Rilu-8] | found to inhibit HKs |
| Nc1ccc2nc(N)sc2c1 [Rilu-9] | found to inhibit HKs |
